# Test results taken from patent publication US20220204644A1 (MAB DISCOVERY, published 2022).
# These are yes or no findings as the source states them, for the method shown. Some binding calls cover weakened binding; strength is not graded here.
# B1: B100 anti-HER2 monoclonal antibody (antibody, V domains shown)
# VH: QSVEESGGRLVTPGTPLTLTCTVSGFSLSNYGVSWVRQAPGKGLEYIGIISGSGFTYYASWAKGRFTISKTSTTVDLKITSPTTKDTATYFCARGVVPGYNAGGLWGQGTLVTVSS
# VL: DIVMTQTPASVSEPVGGTVTIKCQASQGISTALAWYQQKPGQRPKLLIYSASTLASGVSSRFKGSGSGTQFTLTISDLECADAATYYCQCTAAGSVSVGAFGGGTEVVVN
# notes: It was detected in the ELISA with an anti-human F(ab)2 conjugate; also called B100 antibody
# Assays:
# [1] = target: HER2 fusion-protein containing sub-domain III and IV (human) (UniProt P04626); test: ELISA, coated HER2 domain, antibody at 10 µg/ml
# [2] = target: HER2 sub-domain III, recombinant (human) (UniProt P04626); test: ELISA, coated HER2 domain, antibody at 10 µg/ml
binder,measurement,setting,value
B1,binding,[1],binds
same,binding,[2],binds
